No constants are given. Whether binding was seen depends on the method and setting. In cells and extracts the contact can be indirect. Some entries that bind do so weakly or less than the wild type.
How the values were obtained:
[1] = biological target: Flag-tagged CHIP full length (CHIP^FL) (human) (UniProt Q9UNE7); assay: co-IP; BxPC-3 cells co-transfected with His-EGFR and Flag-CHIP (full length or truncations) for 48 h, then MG132 (5 μM); immunoprecipitation with anti-Flag (or anti-His) antibody, protein A/G agarose beads; immunoblot with anti-His antibody
[2] = biological target: Flag-tagged CHIP^ΔTPR (human) (UniProt Q9UNE7); assay: as above
[3] = biological target: Carboxyl terminus of heat shock protein 70-interacting protein (CHIP), endogenous (human (endogenous in BxPC-3)) (UniProt Q9UNE7); assay: co-IP; endogenous proteins in BxPC-3 cells pretreated with MG132 (5 μM, 6 h by the legend); immunoprecipitation with CHIP or EGFR antibody, protein A/G agarose beads, modified RIPA buffer, 12 h at 4 °C; immunoblot

Protein sequences, listed by entry. Tags and fused reporters are not part of them. Lines headed by an entry give the natural chain unless they say otherwise; changes in a name come on top. Chains listed by the source or under a name are the forms on record and can include a tag or linker. Residues count along the entry.
Flag-tagged CHIP^ΔTPR (Q9UNE7, residues 226-300): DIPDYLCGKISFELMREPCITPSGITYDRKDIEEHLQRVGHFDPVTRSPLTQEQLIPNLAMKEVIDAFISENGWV

Substance	binding [1]	binding [2]	binding [3]
His-tagged EGFR (from UniProt P00533 25-1210) (receptor)	binds	no binding	–
epidermal growth factor receptor (EGFR), endogenous (from UniProt P00533 25-1210)	–	–	binds
